From article PMC11172389

Amino acid sequences for entries named in this document (tags omitted).
UniProt O70507: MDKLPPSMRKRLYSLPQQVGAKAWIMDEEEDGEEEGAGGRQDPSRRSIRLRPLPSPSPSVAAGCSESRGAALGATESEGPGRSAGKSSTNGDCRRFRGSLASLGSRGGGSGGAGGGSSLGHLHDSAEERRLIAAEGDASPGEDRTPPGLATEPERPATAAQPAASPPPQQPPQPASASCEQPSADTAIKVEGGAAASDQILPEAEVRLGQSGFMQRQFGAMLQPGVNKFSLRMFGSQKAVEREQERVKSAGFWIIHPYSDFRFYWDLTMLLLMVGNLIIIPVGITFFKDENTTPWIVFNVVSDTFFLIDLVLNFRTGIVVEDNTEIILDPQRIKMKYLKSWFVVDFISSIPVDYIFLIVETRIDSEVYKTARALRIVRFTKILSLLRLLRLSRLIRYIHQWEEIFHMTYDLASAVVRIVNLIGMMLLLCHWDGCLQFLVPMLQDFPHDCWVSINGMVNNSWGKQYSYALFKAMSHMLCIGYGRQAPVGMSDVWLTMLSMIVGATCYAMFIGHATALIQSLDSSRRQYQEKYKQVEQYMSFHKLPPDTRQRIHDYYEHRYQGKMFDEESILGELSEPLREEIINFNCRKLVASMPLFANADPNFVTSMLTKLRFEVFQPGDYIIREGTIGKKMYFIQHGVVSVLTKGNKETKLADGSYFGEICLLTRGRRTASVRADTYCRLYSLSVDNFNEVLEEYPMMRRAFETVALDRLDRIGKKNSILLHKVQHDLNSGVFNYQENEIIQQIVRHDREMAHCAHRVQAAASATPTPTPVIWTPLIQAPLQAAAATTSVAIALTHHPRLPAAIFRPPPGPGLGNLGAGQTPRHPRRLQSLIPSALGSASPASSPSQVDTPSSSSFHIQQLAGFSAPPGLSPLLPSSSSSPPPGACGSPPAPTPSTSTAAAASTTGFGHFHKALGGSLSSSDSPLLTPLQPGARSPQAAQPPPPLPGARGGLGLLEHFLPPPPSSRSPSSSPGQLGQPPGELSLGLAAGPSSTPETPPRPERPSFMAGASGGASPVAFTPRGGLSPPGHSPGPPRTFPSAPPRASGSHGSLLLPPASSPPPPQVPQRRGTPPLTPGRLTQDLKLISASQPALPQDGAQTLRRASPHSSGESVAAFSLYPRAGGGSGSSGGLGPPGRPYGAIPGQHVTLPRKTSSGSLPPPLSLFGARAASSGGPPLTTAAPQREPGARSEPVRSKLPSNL
UniProt Q99246: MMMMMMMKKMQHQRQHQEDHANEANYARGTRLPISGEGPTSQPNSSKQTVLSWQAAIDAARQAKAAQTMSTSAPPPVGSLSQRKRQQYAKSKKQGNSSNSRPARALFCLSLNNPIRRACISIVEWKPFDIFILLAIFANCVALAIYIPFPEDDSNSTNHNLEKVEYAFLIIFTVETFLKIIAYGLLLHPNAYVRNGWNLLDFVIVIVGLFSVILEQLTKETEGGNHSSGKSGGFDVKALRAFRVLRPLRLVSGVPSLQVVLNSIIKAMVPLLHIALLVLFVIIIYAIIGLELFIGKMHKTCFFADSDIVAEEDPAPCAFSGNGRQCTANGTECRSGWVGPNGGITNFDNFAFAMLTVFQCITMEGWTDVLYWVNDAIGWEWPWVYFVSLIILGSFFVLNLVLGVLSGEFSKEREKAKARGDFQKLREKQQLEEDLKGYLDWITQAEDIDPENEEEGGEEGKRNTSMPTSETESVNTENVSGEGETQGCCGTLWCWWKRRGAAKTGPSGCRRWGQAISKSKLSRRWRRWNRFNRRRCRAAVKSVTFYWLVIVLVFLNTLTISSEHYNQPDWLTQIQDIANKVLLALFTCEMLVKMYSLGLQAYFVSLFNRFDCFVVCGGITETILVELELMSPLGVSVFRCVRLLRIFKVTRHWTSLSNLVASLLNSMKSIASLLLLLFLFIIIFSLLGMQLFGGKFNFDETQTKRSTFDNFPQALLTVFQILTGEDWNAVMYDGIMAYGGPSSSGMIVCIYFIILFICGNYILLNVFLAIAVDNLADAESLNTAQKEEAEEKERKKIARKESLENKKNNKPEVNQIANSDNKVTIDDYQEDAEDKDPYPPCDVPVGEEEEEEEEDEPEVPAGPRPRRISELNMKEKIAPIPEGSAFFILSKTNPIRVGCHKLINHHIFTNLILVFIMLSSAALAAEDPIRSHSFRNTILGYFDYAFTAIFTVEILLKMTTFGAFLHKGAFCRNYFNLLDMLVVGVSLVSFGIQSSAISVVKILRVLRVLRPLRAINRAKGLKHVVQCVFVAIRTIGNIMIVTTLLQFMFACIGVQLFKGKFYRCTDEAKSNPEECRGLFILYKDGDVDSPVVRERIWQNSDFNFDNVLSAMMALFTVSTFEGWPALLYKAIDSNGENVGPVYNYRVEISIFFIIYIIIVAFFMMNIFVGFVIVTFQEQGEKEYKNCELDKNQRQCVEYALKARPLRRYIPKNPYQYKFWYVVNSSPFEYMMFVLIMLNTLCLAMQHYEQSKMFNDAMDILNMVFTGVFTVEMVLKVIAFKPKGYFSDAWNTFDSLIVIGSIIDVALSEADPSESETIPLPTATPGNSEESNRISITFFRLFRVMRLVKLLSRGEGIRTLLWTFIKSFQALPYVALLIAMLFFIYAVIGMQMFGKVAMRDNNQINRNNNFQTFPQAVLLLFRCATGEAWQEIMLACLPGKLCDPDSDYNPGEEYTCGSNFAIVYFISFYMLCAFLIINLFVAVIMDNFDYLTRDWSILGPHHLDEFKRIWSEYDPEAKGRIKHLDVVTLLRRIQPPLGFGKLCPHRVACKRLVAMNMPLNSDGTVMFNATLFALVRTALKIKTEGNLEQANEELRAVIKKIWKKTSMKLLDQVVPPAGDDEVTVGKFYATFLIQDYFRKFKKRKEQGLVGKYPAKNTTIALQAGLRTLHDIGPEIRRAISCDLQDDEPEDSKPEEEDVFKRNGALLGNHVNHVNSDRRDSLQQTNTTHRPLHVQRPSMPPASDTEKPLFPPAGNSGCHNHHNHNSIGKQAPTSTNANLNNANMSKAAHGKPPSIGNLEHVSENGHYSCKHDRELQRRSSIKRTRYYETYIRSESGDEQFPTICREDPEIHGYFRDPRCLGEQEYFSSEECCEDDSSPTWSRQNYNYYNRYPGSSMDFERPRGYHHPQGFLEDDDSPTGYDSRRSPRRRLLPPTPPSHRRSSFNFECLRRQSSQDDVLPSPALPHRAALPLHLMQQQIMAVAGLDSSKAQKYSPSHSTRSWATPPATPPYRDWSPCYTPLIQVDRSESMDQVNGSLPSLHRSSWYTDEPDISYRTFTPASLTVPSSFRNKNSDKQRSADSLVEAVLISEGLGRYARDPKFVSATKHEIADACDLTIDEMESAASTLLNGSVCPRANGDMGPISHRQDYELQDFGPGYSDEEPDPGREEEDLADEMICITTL
UniProt P58391: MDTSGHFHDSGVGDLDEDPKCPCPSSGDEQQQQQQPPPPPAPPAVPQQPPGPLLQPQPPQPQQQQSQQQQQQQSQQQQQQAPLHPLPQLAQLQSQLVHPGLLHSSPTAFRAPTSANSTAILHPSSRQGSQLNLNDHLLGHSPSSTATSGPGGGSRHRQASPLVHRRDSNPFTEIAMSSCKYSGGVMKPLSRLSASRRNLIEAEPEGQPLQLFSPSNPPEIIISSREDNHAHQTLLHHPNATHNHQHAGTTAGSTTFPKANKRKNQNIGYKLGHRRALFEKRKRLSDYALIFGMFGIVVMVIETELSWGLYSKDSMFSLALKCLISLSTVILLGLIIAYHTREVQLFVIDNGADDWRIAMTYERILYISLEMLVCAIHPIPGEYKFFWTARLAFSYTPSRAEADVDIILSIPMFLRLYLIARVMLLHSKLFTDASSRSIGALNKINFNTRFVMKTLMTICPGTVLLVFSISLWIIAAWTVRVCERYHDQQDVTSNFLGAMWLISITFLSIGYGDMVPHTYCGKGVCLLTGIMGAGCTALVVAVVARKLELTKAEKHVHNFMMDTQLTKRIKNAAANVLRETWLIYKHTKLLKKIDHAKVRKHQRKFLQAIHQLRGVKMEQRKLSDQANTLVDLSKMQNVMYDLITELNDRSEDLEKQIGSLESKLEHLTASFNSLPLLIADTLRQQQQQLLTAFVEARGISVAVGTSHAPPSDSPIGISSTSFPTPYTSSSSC
UniProt O88704: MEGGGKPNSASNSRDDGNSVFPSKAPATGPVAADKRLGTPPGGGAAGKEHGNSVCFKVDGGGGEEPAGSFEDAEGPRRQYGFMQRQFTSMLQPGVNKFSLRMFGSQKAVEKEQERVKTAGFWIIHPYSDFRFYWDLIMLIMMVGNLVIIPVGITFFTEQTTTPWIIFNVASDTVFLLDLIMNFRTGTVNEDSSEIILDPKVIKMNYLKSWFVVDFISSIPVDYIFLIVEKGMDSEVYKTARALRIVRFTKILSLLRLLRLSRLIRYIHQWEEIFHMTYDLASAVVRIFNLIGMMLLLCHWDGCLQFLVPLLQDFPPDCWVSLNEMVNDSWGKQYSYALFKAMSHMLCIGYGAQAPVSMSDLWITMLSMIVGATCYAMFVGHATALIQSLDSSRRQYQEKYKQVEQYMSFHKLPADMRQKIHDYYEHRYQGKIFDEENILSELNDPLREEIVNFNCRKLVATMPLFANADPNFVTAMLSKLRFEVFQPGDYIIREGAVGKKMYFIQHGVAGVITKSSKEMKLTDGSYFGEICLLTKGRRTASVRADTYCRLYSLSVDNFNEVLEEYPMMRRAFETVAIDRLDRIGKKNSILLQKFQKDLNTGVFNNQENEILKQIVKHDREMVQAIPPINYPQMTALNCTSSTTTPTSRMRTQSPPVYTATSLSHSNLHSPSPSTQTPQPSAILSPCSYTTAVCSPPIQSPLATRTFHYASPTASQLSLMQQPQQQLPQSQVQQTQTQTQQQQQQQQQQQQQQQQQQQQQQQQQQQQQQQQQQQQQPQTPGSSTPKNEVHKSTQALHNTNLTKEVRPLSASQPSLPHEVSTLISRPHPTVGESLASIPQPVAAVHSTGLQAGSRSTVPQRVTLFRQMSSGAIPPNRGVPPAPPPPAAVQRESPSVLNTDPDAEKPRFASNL

T1: hyperpolarization-activated cyclic nucleotide-gated channel HCN2 (mouse (endogenous in midbrain)) (UniProt O88703)
T1 sequence: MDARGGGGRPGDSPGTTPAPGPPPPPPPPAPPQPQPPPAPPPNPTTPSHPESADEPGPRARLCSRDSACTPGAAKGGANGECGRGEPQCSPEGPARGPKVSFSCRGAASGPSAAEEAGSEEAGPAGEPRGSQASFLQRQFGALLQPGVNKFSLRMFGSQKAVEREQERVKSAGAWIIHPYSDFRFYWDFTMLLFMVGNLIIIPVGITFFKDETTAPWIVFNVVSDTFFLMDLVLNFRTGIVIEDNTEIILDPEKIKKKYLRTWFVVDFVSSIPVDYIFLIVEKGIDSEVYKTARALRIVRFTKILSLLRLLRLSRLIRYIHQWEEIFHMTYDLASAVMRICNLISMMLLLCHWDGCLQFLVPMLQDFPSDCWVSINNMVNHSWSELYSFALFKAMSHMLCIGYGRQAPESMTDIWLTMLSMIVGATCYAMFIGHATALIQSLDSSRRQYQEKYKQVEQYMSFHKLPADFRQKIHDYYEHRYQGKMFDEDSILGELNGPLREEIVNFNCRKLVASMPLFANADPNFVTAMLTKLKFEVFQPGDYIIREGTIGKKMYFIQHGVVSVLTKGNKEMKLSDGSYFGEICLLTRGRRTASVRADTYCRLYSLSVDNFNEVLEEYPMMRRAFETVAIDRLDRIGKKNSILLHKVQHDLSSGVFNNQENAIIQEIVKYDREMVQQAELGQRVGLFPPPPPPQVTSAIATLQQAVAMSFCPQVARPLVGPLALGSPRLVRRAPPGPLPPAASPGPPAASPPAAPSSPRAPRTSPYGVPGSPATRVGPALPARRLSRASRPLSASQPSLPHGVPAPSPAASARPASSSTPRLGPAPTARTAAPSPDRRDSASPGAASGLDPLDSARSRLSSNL


Tests used:
Experiment in all cases: affinity purification with mass spectrometry; mouse midbrain plasma-membrane-enriched fraction solubilised in CL47a; antibody-coated magnetic beads (protein A Dynabeads for Cav1.3), 2 h at 4 °C; LC-MS/MS, iBAQ, Class A/B against 11 control IPs from knock-out mice
[1] = biological target: T1, hyperpolarization-activated cyclic nucleotide-gated channel HCN2 (mouse (endogenous in midbrain))
[2] = biological target: hyperpolarization-activated cyclic nucleotide-gated channel HCN4 (mouse (endogenous in midbrain)) (UniProt O70507)
[3] = biological target: Cav1.3 L-type voltage-dependent Ca2+ channel α1-subunit (mouse (endogenous in midbrain)) (UniProt Q99246)
[4] = biological target: SK3 calcium-activated small-conductance potassium channel (mouse (endogenous in midbrain)) (UniProt P58391)

| binding [1] | binding [2] | binding [3] | binding [4] | Molecule |
| --- | --- | --- | --- | --- |
| binds | binds | – | – | hyperpolarization-activated cyclic nucleotide-gated channel HCN1 (from UniProt O88704 1-910) |
| no binding | binds | – | – | sterile alpha and Toll/interleukin-1 receptor (TIR) motif-containing 1 (protein, UniProt Q6PDS3 28-724) LTVPGPDRSGGASPWWAAGGRGSREVSPGVGTEVQGALERSLPELQQALSELKQASAARAVGAGLAEVFQLVEEAWLLPAVGREVAQGLCDAIRLDGGLDLLLRLLQAPELETRVQAARLLEQILVAENRDRVARIGLGVILNLAKEREPVELARSVAGILEHMFKHSEETCQRLVAAGGLDAVLYWCRRTDPALLRHCALALANCALHGGQTVQRCMVEKRAAEWLFPLAFSKEDELLRLHACLAVAVLATNKEVEREVEHSGTLALVEPLVASLDPGRFARCLVDASDTSQGRGPDDLQSLVLLLDSSRLEAQCIGAFYLCAEAAIKSLQGKTKVFSDIGAIQSLKRLVSYSTNGTTSALAKRALRLLGEEVPRRILPCVASWKEAEVQTWLQQIGFSQYCENFREQQVDGDLLLRLTDEELQTDLGMKSSITRKRFFRELTELKTFASYATCDRSNLADWLGSLDPRFRQYTYGLVSCGLDRSLLHRVSEQQLLEDCGIRLGVHRTRILSAAREMLHSPLPCTGGKLSGDTPDVFISYRRNSGSQLASLLKVHLQLHGFSVFIDVEKLEAGKFEDKLIQSVIAARNFVLVLSAGALDKCMQDHDCKDWVHKEIVTALSCGKNIVPIIDGFEWPEPQALPEDMQAVLTFNGIKWSHEYQEATIEKIIRFLQGRPSQDSSAGSDTSLEGATPMGLP |
| – | binds | binds | binds | hyperpolarization-activated cyclic nucleotide-gated channel HCN2 (protein, UniProt O88703 1-863) MDARGGGGRPGDSPGTTPAPGPPPPPPPPAPPQPQPPPAPPPNPTTPSHPESADEPGPRARLCSRDSACTPGAAKGGANGECGRGEPQCSPEGPARGPKVSFSCRGAASGPSAAEEAGSEEAGPAGEPRGSQASFLQRQFGALLQPGVNKFSLRMFGSQKAVEREQERVKSAGAWIIHPYSDFRFYWDFTMLLFMVGNLIIIPVGITFFKDETTAPWIVFNVVSDTFFLMDLVLNFRTGIVIEDNTEIILDPEKIKKKYLRTWFVVDFVSSIPVDYIFLIVEKGIDSEVYKTARALRIVRFTKILSLLRLLRLSRLIRYIHQWEEIFHMTYDLASAVMRICNLISMMLLLCHWDGCLQFLVPMLQDFPSDCWVSINNMVNHSWSELYSFALFKAMSHMLCIGYGRQAPESMTDIWLTMLSMIVGATCYAMFIGHATALIQSLDSSRRQYQEKYKQVEQYMSFHKLPADFRQKIHDYYEHRYQGKMFDEDSILGELNGPLREEIVNFNCRKLVASMPLFANADPNFVTAMLTKLKFEVFQPGDYIIREGTIGKKMYFIQHGVVSVLTKGNKEMKLSDGSYFGEICLLTRGRRTASVRADTYCRLYSLSVDNFNEVLEEYPMMRRAFETVAIDRLDRIGKKNSILLHKVQHDLSSGVFNNQENAIIQEIVKYDREMVQQAELGQRVGLFPPPPPPQVTSAIATLQQAVAMSFCPQVARPLVGPLALGSPRLVRRAPPGPLPPAASPGPPAASPPAAPSSPRAPRTSPYGVPGSPATRVGPALPARRLSRASRPLSASQPSLPHGVPAPSPAASARPASSSTPRLGPAPTARTAAPSPDRRDSASPGAASGLDPLDSARSRLSSNL |

Results are given in words; binding and its absence hold for the method and conditions named. In cells and extracts the contact can be indirect. These calls come from enrichment with a bait or labelling near it, and not all partners need be listed. For some of these results: A no says only that the protein was not detected with the bait.
